The text below walks through data of PubChem BioAssay AID1487 (National Center for Advancing Translational Sciences (NCATS), 2009).

Where “and” joins values, the source holds several entries; their conditions need not be identical. Identical values can stand only once. The list shows a part of the results. These are further read-outs of the screen, such as a control signal, another cell line or another target. No call is given for them. Compounds called inactive in the main read-out are mostly missing here. The note in brackets gives the kind of curve behind each potency; many fits are weak.

The assay in a line: qHTS Assay for Modulators of Lamin A Splicing. Particulars: HeLa LMNA splicing GFP/RFP minigene ratio, 48 h. In short, it runs like this: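 S3 HeLa stable clones carrying a lamin A-EGFP splicing minigene plus DsRed2 were seeded at 600 cells/well in Opti-MEM with 2% FBS, pin-dosed and incubated 48 h at 37°C. Acumen cytometry (488 nm) gave the GFP/RFP total-intensity ratio.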
Where [1] appears, read: measured here: RFP viability control channel.
The mark [2] stands for this setting: measured here: GFP splicing reporter channel.

Turning to `Cc1ccc(OCC(=O)Nc2ccc(OCc3cc(=O)n4cccc(C)c4n3)cc2)cc1C`, the half-maximal activity concentration (AC50) under setting [1] was 35.5 µM [falling, single point]. For `CCn1c(-c2csc(-c3ccccc3)n2)n[nH]c1=S`, under setting [2], the AC50 was 14.1 µM [rising, single point]. Turning to `OCCC1CN(C2CCSCC2)CCN1C1CCCC1` (stereo unspecified), the half-maximal activity concentration (AC50) under setting [1] is 0.501 µM [falling, full curve, poor fit]. Still for that read-out and setting: then `Clc1ccc(OCCOCCN2CCc3ccccc3C2)c(Cl)c1`, with 35.5 µM [rising, single point]. On to `O=C(O)CCCCCCCC(=O)O`, for which the AC50 is, setting by setting: under setting [2], 0.0562 µM [falling, full curve, poor fit]; under setting [1], 5.01 nM [falling, full curve, poor fit] and 100 nM [falling, full curve]. With `O=C(NNC(=S)Nc1cccc(C(F)(F)F)c1)c1ccccc1Cl`, under setting [1], the AC50 is 12.6 µM [rising, partial curve]. The same measure, in the same setting: then `CCOc1cccc(=O)c2c(C)n(C)c(C)c12`, with 11.2 µM [rising, partial curve].

In the case of `Clc1ccc(CNc2ccccc2NCc2ccc(Cl)nc2)cn1`, under setting [2], the AC50 is 3.98 µM [rising, partial curve]. Turning to `COc1ccc(N2CCN(C(CNC(=O)C(=O)NCCC3=CCCCC3)c3ccco3)CC2)cc1` (stereo unspecified), the AC50 under setting [1] was 35.5 µM [rising, single point]. Turning to `CCOC(=O)C1(Cc2ccccc2)CCN(Cc2cc(=O)c3ccccc3[nH]2)CC1`, the AC50 is, setting by setting: under setting [2], 3.98 µM [falling, full curve]; under setting [1], 3.55 µM [falling, full curve]. `CCOc1ccc(OCC)c(NC(=O)CSc2nc3cccnc3n2C)c1`: the concentration at half-maximal activity (AC50) was 14.1 µM [rising, partial curve] under setting [2] and 22.4 µM [rising, partial curve] under setting [1].

Turning to `CCC1CSC(Nc2ccc(C(=O)/C=C/c3ccc(OC)c(OC)c3)cc2)=N1` (stereo unspecified), the AC50 reads like this: under setting [2], 1 µM [rising, partial curve]; under setting [1], 0.355 µM [rising, full curve]. For `CCOc1ccc2nc(SCCNS(=O)(=O)c3ccccc3)sc2c1`, the AC50 was 35.5 µM [rising, single point] under setting [2] and 35.5 µM [rising, single point] under setting [1]. On to `COc1ccc(NC(=S)NNC(=O)C2CC2c2ccc(C)cc2)cc1` (stereo unspecified), for which the AC50 under setting [2] is 35.5 µM [rising, single point] and the concentration at half-maximal activity (AC50) under setting [1] was 22.4 µM [rising, single point]. Turning to `CN(C)c1ccc(N=Cc2nc(-c3ccccc3)oc2OC(=O)c2ccccc2)cc1`, under setting [2], the AC50 is 35.5 µM [falling, single point].

As to `CCOC(=O)c1[nH]c(C)c(C(=O)NC2CCN(C(=O)OCC)CC2)c1C`, the AC50 is, setting by setting: under setting [2], 12.6 µM [rising, single point]; under setting [1], 12.6 µM [rising, single point]. With `COCCn1c(SCC(=O)NNC(=O)c2ccc(OC)c(OC)c2)nc2ccccc2c1=O`, the concentration at half-maximal activity (AC50) under setting [1] was 6.31 µM [rising, single point].

In the case of `COc1cccc(-c2nn(C)c3sc(C(=O)NCc4ccccn4)cc23)c1`, the half-maximal activity concentration (AC50) under setting [1] is 22.4 µM [rising, single point]. In the case of `O=C(N/N=C/c1cccs1)c1cc(-c2ccncc2)nc2ccccc12`, the AC50 is 0.501 µM [rising, full curve] under setting [2] and 0.794 µM [rising, full curve] under setting [1]. `CCOc1ccc2c(c1)-c1c(ssc1=S)C(C)(C)N2C`: the concentration at half-maximal activity (AC50) under setting [2] is 25.1 µM [rising, single point].

Consider `O=S(=O)(Nc1cccc2ccccc12)c1cccc2nonc12`, for which the concentration at half-maximal activity (AC50) was 25.1 µM [falling, single point] under setting [2] and 35.5 µM [falling, single point] under setting [1]. For `O=C(CSc1cccc[n+]1[O-])NC(=O)c1ccc(OC(F)F)cc1`, the AC50 under setting [1] is 10 µM [falling, partial curve, poor fit]. Same read-out and setting: the result for `CCOc1ccc(N=c2cc(-c3ccc(OC)cc3)oc3ccccc23)cc1` reads 11.2 µM [rising, partial curve, poor fit].

On to `CS(=O)(=O)c1nc(-c2ccc(F)cc2)cc(C(F)(F)F)n1`, for which the AC50 reads like this: under setting [2], 7.08 µM [falling, partial curve]; under setting [1], 5.01 µM [falling, full curve]. Consider `COc1cc(S(=O)(=O)Nc2ccc(C)cc2)ccc1N=Cc1c(C)c(C#N)c(=O)n(C)c1O`, for which the AC50 under setting [2] is 35.5 µM [rising, single point].

Take `COc1ccc(Nc2ncnc3scc(-c4ccc(OC)cc4)c23)cc1`: under setting [1], the concentration at half-maximal activity (AC50) was 15.8 µM [rising, single point].

Turning to `Cc1cc(N2C(=O)NC(=O)CC2C)c(C)cc1C(C)C` (stereo unspecified), the AC50 under setting [1] is 35.5 µM [rising, single point]. As for `Cc1nc2ccc(NC(=O)c3ccc(F)c(S(=O)(=O)N4CCOCC4)c3)cc2s1`, the concentration at half-maximal activity (AC50) reads like this: under setting [2], 8.91 µM [rising, partial curve]; under setting [1], 11.2 µM [rising, partial curve]. As for `CCN(CC)S(=O)(=O)c1cccc(NC(=O)C(=O)c2c(-c3ccccc3)cc3ccccn23)c1`, under setting [1], the AC50 is 31.6 µM [rising, single point]. On to `CCC(C)N(C(=O)COC(=O)CNC(=O)c1ccccc1F)C1CCS(=O)(=O)C1` (stereo unspecified), for which the AC50 under setting [1] was 0.0447 µM [falling, full curve, poor fit]. As for `Cc1ccc(S(=O)(=O)Oc2cccc(/C=N/n3cnnc3)c2)cc1`, the AC50 was 12.6 µM [rising, partial curve] under setting [2] and 14.1 µM [rising, partial curve] under setting [1]. On to `CCOC(=O)C(NC(=O)NCc1ccccc1)(OCC)C(F)(F)F` (stereo unspecified), for which the concentration at half-maximal activity (AC50) under setting [1] was 35.5 µM [rising, single point]. Turning to `C=CCN(c1ccc(C(=O)Nc2ccc(C)c(C)c2)cc1)S(C)(=O)=O`, the concentration at half-maximal activity (AC50) by setting is: under setting [2], 12.6 µM [rising, partial curve, poor fit]; under setting [1], 14.1 µM [rising, partial curve].

Turning to `Cc1cc2nnc(SCC(=O)NCC3CCCO3)n2c2ccccc12` (stereo unspecified), the AC50 under setting [1] is 5.01 µM [rising, single point]. The same measure, in the same setting: the result for `O=C(CCCN1C(=O)c2ccccc2C1=O)N1CCOCC1` reads 17.8 µM [rising, partial curve, poor fit]. Regarding `Cc1nonc1C1CCCN1C(=O)c1cc(COc2ccc(F)cc2F)on1` (stereo unspecified), the AC50 under setting [2] is 5.62 µM [rising, partial curve, poor fit]. Same read-out and setting: the result for `COc1ccc(C2=NCC(CSc3nnc(-c4ccc5c(c4)OCO5)o3)S2)cc1` (stereo unspecified) reads 5.62 µM [rising, partial curve, poor fit].

Take `CC(CO)Nc1nc(SCc2ccccc2)nc2sc3c(c12)CCC3` (stereo unspecified): the AC50 under setting [1] is 22.4 µM [falling, partial curve, poor fit]. For `CC(C)(C)n1nc2c(c1NC(=O)Cc1cccc3ccccc13)CS(=O)(=O)C2`, the AC50 is 6.31 µM [falling, full curve, poor fit] under setting [2] and 3.98 µM [falling, full curve, poor fit] under setting [1]. Take `CN(C)c1ccc(CNC(=O)CN2C(=O)c3cccnc3Oc3ccc(Cl)cc32)cc1`: the AC50 reads like this: under setting [2], 0.0398 µM [falling, partial curve]; under setting [1], 0.0282 µM [falling, partial curve]. `O=C1NN=COc2ccccc21`: the AC50 under setting [1] is 0.398 µM [rising, full curve, poor fit]. `CCn1c2ccccc2c2nnc(SCc3ccccc3)nc21`: the AC50 runs as follows: under setting [2], 15.8 µM [rising, single point]; under setting [1], 0.794 µM [rising, partial curve].

For `CN(C)CCN(Cc1cc2cc3c(cc2[nH]c1=O)OCCO3)C(=S)NCC1CCCO1` (stereo unspecified), the half-maximal activity concentration (AC50) under setting [2] was 0.0141 µM [rising, partial curve, poor fit].

For `CCOC(=O)c1cccc(NC(=O)Cn2c(CC(=O)N3CCCC3)nc3ccccc32)c1`, the half-maximal activity concentration (AC50) under setting [1] was 11.2 µM [rising, single point]. Same read-out and setting: the result for `COc1ccc(NC(=S)N(CCc2c(C)[nH]c3ccc(C)cc23)Cc2cccnc2)cc1` reads 15.8 µM [rising, single point].

For the compound `COc1ccc(-c2nc3cnc(Nc4cccc(OC)c4)nc3n(C)c2=O)cc1`, the AC50 under setting [2] was 10 µM [falling, partial curve] and the half-maximal activity concentration (AC50) under setting [1] was 8.91 µM [falling, partial curve]. As for `Cc1ccc(S(=O)(=O)N2CCN(C(C)C)CC2)cc1`, the AC50 under setting [1] is 0.0112 µM [rising, full curve, poor fit]. In the case of `CCc1nnc(NC(=O)CSc2nnc(CNc3ccc(F)cc3)n2C2CCCCC2)s1`, the concentration at half-maximal activity (AC50) is 5.62 µM [rising, partial curve] under setting [2] and 20 µM [rising, single point] under setting [1]. Consider `COc1ccc(S(=O)(=O)N(Cc2ccccc2)Cc2nc(-c3ccccc3)no2)cc1`, for which the AC50 under setting [1] is 25.1 µM [rising, single point]. Regarding `CCNc1cc2n(c(=O)n1)CCc1cc(OC)c(OC)cc1-2`, the AC50 under setting [1] is 31.6 µM [rising, single point].

In the case of `Cc1sc(N/N=C/c2cccnc2)nc1-c1ccccc1`, the AC50 was 7.08 µM [falling, partial curve, poor fit] under setting [2] and 11.2 µM [falling, partial curve] under setting [1]. As for `FC(F)(F)c1cccc(NC(=S)NCC(c2cccnc2)N2CCOCC2)c1` (stereo unspecified), the AC50 under setting [1] is 3.16 µM [rising, single point].

Take `COc1ccc(CNC(=O)CCCN2C(=O)c3ccccc3C2=O)cc1`: under setting [2], the concentration at half-maximal activity (AC50) is 0.794 µM [rising, full curve, poor fit].

Turning to `COc1ccc(S(=O)(=O)N2CCN(c3ccc(C)cc3C)CC2)cc1OC`, the AC50 was 11.2 µM [rising, single point] under setting [2] and 15.8 µM [rising, partial curve] under setting [1]. Regarding `Oc1cccc(NC(=S)Nc2ccc(SC(F)F)cc2)c1`, the concentration at half-maximal activity (AC50) under setting [1] is 35.5 µM [rising, single point]. Still for that read-out and setting: then `Cc1c(C(=O)Nc2cccc(C(F)(F)F)c2)oc2ccc(S(=O)(=O)N3CCC4(CC3)OCCO4)cc12`, with 3.16 µM [falling, single point].
